Assay results published in the supplement of paper PMC6078165.
Values are relative to the signal before dosing, not to a vehicle control; the signal also falls without drug.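 Fibroblast labels name human fibroblasts: mostly primary ones from tissues such as uterus (C12385, HUF), lung (H6013), bone (Hs27A), adrenal (HADF) and skin (WS1), plus mammary HMF and breast cancer-associated Hs343T. The cancer cells are basal-like or mesenchymal-like triple-negative breast cancer lines. The paper calls a changed response a hit when it shifts by more than 3x the replicate standard deviation. The tissue of the other fibroblasts is not given here.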

System: BT20
Experiment: relative JC-1 red fluorescence (viability) vs pre-drug, coculture with fibroblast (fraction); higher = more viable cancer cells
Protocol: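 JC-1 labelled TNBC cells cocultured 1:1 (1,500 cells each) with CellTrace Violet stained primary or stromal fibroblasts in 384-well plates in FluoroBrite medium, treated with one of 42 anticancer drugs at 0.1, 1, 10 or 100 uM. JC-1 red fluorescence (mitochondrial integrity in cancer cells only) was read by plate reader every 8 h for 72 h. Values are normalised to each well's pre-drug value. The stock of one drug was tenfold lower, so its dose labels may be too high.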

CC(C)(C#N)c1cc(Cn2cncn2)cc(C(C)(C)C#N)c1 [Anastrozole]
relative JC-1 red fluorescence
Settings | 8 h | 16 h | 24 h | 32 h | 40 h | 48 h | 56 h | 64 h | 72 h
0.1 µM, coculture fibroblast: C12385 | 0.932 | 0.86 | 0.788 | 0.728 | 0.65 | 0.599 | 0.562 | 0.525 | 0.504
0.1 µM, coculture fibroblast: H6013 | 0.9083 | 0.8467 | 0.821 | 0.77 | 0.738 | 0.714 | 0.72 | 0.704 | 0.686
0.1 µM, coculture fibroblast: H6019 | 0.83 | 0.76 | 0.737 | 0.67738 | 0.629 | 0.602 | 0.574 | 0.566 | 0.552
0.1 µM, coculture fibroblast: H6076 | 0.885 | 0.896 | 0.782 | 0.737 | 0.6891 | 0.652 | 0.637 | 0.62 | 0.604
0.1 µM, coculture fibroblast: H6231 | 0.752 | 0.926 | 0.815 | 0.743 | 0.7 | 0.638 | 0.59 | 0.5655 | 0.546
0.1 µM, coculture fibroblast: HADF | 0.879 | 0.8921 | 0.8248 | 0.806 | 0.765 | 0.7097 | 0.698 | 0.679 | 0.647
0.1 µM, coculture fibroblast: HCFa | 0.891 | 0.841 | 0.8057 | 0.7399 | 0.6877 | 0.647 | 0.609 | 0.576 | 0.53
0.1 µM, coculture fibroblast: HCPF | 0.954 | 0.8628 | 0.8082 | 0.769 | 0.733 | 0.696 | 0.651 | 0.659 | 0.632
0.1 µM, coculture fibroblast: HHSteC | 0.9287 | 0.861 | 0.8 | 0.718 | 0.655 | 0.61 | 0.58 | 0.554 | 0.522
0.1 µM, coculture fibroblast: HMF | 0.9352 | – | 0.74 | 0.662 | 0.623 | 0.575 | 0.541 | 0.508 | 0.483
0.1 µM, coculture fibroblast: HPFa | 0.953 | 0.821 | 0.775 | 0.689 | 0.645 | 0.599 | 0.555 | 0.513 | 0.467
0.1 µM, coculture fibroblast: HUF | 0.9122 | 0.819 | 0.771 | 0.692 | 0.635 | 0.591 | 0.557 | 0.529 | 0.515
0.1 µM, coculture fibroblast: Hs5 | 0.786 | 0.922 | 0.859 | 0.818 | 0.77 | 0.737 | 0.706 | 0.67 | 0.636
0.1 µM, coculture fibroblast: Hs27A | 0.807 | 0.933 | 0.824 | 0.95 | 0.91 | 0.904 | 0.895 | 0.874 | 0.836
0.1 µM, coculture fibroblast: Hs343T | 0.9751 | 0.8692 | 0.772 | 0.72 | 0.66 | 0.615 | 0.578 | 0.564 | 0.533
0.1 µM, coculture fibroblast: WS1 | 0.84968 | 0.745 | 0.681 | 0.609 | 0.54 | 0.498 | 0.4659 | 0.4428 | 0.432
1 µM, coculture fibroblast: C12385 | 0.899 | 0.816 | 0.757 | 0.694 | 0.647 | 0.616 | 0.592 | 0.5691 | 0.5537
1 µM, coculture fibroblast: H6013 | 0.955 | 0.8787 | 0.825 | 0.788 | 0.742 | 0.726 | 0.717 | 0.697 | 0.685
1 µM, coculture fibroblast: H6019 | 0.865 | 0.8 | 0.7958 | 0.7564 | 0.7192 | 0.708 | 0.678 | 0.66 | 0.645
1 µM, coculture fibroblast: H6076 | 0.962 | 0.911 | 0.842 | 0.812 | 0.777 | 0.756 | 0.741 | 0.732 | 0.713
1 µM, coculture fibroblast: H6231 | 0.781 | 0.904 | 0.809 | 0.739 | 0.702 | 0.652 | 0.612 | 0.589 | 0.557
1 µM, coculture fibroblast: HADF | 0.9869 | 0.9232 | 0.8283 | 0.782 | 0.747 | 0.715 | 0.705 | 0.689 | 0.668
1 µM, coculture fibroblast: HCFa | 0.92 | 0.822 | 0.832 | 0.778 | 0.729 | 0.697 | 0.666 | 0.641 | 0.593
1 µM, coculture fibroblast: HCPF | 0.849 | 0.89 | 0.816 | 0.776 | 0.739 | 0.695 | 0.647 | 0.629 | 0.592
1 µM, coculture fibroblast: HHSteC | 0.919 | 0.852 | 0.858 | 0.777 | 0.724 | 0.697 | 0.672 | 0.651 | 0.628
1 µM, coculture fibroblast: HMF | 0.85 | 0.9094 | 0.794 | 0.736 | 0.676 | 0.626 | 0.591 | 0.564 | 0.539
1 µM, coculture fibroblast: HPFa | 0.958 | 0.886 | 0.897 | 0.801 | 0.78 | 0.732 | 0.712 | 0.682 | 0.632
1 µM, coculture fibroblast: HUF | 0.9154 | 0.801 | 0.737 | 0.655 | 0.588 | 0.54 | 0.509 | 0.475 | 0.459
1 µM, coculture fibroblast: Hs5 | 0.898 | 0.88 | 0.8328 | 0.782 | 0.747 | 0.717 | 0.685 | 0.658 | 0.623
1 µM, coculture fibroblast: Hs27A | 0.869 | 0.913 | 0.889 | 0.897 | 0.853 | 0.839 | 0.815 | 0.791 | 0.734
1 µM, coculture fibroblast: Hs343T | 0.905 | 0.845 | 0.753 | 0.688 | 0.621 | 0.573 | 0.515 | 0.481 | 0.44
1 µM, coculture fibroblast: WS1 | 0.87736 | 0.79007 | 0.713 | 0.648 | 0.585 | 0.552 | 0.51 | 0.477 | 0.461
